Data published in patent US20080274118A1 (Novartis, published 2008).
No constants are given. Whether binding was seen depends on the method and setting. Some entries that bind do so weakly or less than the wild type.

Chains of the proteins cited; added tags and fusions are not shown. Lines headed by an entry give the natural chain unless they say otherwise; changes in a name come on top.
UniProt P25942: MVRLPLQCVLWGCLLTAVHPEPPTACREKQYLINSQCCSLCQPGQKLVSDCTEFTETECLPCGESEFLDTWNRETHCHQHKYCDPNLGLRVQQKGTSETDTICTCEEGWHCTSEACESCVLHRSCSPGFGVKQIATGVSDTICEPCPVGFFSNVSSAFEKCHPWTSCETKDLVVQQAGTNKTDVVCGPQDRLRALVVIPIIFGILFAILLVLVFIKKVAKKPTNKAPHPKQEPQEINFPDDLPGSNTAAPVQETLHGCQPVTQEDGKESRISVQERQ

B1: CHIR-5.9 fully human anti-CD40 monoclonal antibody (antibody, V domains shown)
VH: EVQLVQSGAEVKKPGESLKISCKGSGYSFTSYWIGWVRQMPGKGLEWMGIIYPGDSDTRYSPSFQGQVTISADKSISTAYLQWSSLKASDTAMYYCARGTAAGRDYYYYYGMDVWGQGTTVTVSS
VL: AIVMTQPPLSSPVTLGQPASISCRSSQSLVHSDGNTYLNWLQQRPGQPPRLLIYKFFRRLSGVPDRFSGSGAGTDFTLKISRVEAEDVGVYYCMQVTQFPHTFGQGTRLEIKR
notes: also called mAb CHIR-5.9; 131.2F8.5.9
B2: CHIR-12.12 fully human anti-CD40 monoclonal antibody (antibody, V domains shown)
VH: QVQLVESGGGVVQPGRSLRLSCAASGFTFSSYGMHWVRQAPGKGLEWVAVISYEESNRYHADSVKGRFTISRDNSKITLYLQMNSLRTEDTAVYYCARDGGIAAPGPDYWGQGTLVTVSS
VL: DIVMTQSPLSLTVTPGEPASISCRSSQSLLYSNGYNYLDWYLQKPGQSPQVLISLGSNRASGVPDRFSGSGSGTDFTLKISRVEAEDVGVYYCMQARQTPFTFGPGTKVDIRR
notes: also called 153.8E2.D10.D6.12.12

Molecular target: human CD40, soluble or recombinant (ELISA, Biacore) (human) (UniProt P25942)
Test: ELISA-type assays

Row | Binder | binding
1 | B1 | binds
2 | B2 | binds
